Data source: PubChem BioAssay AID1159578 (Peter MacCallum Cancer Centre, 2015)

Assay: 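Genome-wide hunt for genes controlling movement of lymphatic endothelial cells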 (primary screen)
Cells: human lymphatic endothelial cells
Knock-down reagent: siRNA pool against human genes, 40 nM
Duration: 48 h after transfection
Measured: 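Cells stained with dye and imaged after a scratch; covered wound area and nuclei counted, duplicates averaged, migration set against mock wells and turned into a robust z-score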
Reading the numbers: migration robust z-score: higher = faster migration into the scratch; migration relative to mock: higher = more scratch area covered than mock; nuclei per well: higher = more cells in the well
Hit rule: 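Migration changed when robust z exceeds 2 or falls below -2 and mean nuclei number is at least 3300; otherwise not called changed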
Meaning of the calls: active = migration changed; inactive = no migration change, or too few cells
This is one part, drawn at random, of about 18,000 deposited reagents. In the full data, about 1,030 (5.7%) were called active. 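Inactive calls also include pools with fewer than 3300 nuclei, whose migration was not assessed.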 The raw values are shown without normalisation. The numbers tell different reagents against one gene apart.

no.	target	reagent no.	migration robust z-score	migration class with cell-count check	migration relative to mock	nuclei per well, duplicate mean	call
1	THAP11	1	1.02	migration z between -2 and 2; enough cells	1.15	5426	inactive
2	ATMIN	1	-1.27	migration z between -2 and 2; enough cells	0.55	6316	inactive
3	RHCG	1	0.06	migration z between -2 and 2; enough cells	0.9	6300	inactive
4	NECAB3	1	0.44	migration z between -2 and 2; enough cells	1	6829	inactive
5	MRPL13	1	0.16	migration z between -2 and 2; enough cells	0.93	4761	inactive
6	PYGL	1	0.75	migration z between -2 and 2; enough cells	0.95	6038	inactive
7	FAM241B	1	0.3	migration z between -2 and 2; enough cells	0.97	5874	inactive
8	LINC01973	1	0.67	migration z between -2 and 2; enough cells	1.06	5741	inactive
9	HES5	1	-0.58	migration z between -2 and 2; enough cells	0.74	4986	inactive
10	SLFNL1	1	-1.27	migration z between -2 and 2; enough cells	0.56	7702	inactive
11	ATP6V1C1	1	-0.29	migration z between -2 and 2; enough cells	0.75	5790	inactive
12	CXCL13	1	1.52	migration z between -2 and 2; enough cells	1.27	5820	inactive
13	ADGRE3	1	0.39	migration z between -2 and 2; enough cells	0.88	5051	inactive
14	PIDD1	1	-0.36	migration z between -2 and 2; enough cells	0.79	5332	inactive
15	PCCB	1	0.22	migration z between -2 and 2; enough cells	0.94	6892	inactive
16	HES4	1	-4.21	under 3300 nuclei; migration not judged	-0.21	1832	inactive
17	PSPC1	1	-0.58	migration z between -2 and 2; enough cells	0.73	5800	inactive
18	CELF4	1	-0.78	migration z between -2 and 2; enough cells	0.66	4970	inactive
19	ACAP2	1	0.14	migration z between -2 and 2; enough cells	0.92	6492	inactive
20	NHERF2	1	0.23	migration z between -2 and 2; enough cells	0.85	6170	inactive
21	SLC6A11	1	-1.45	migration z between -2 and 2; enough cells	0.52	4365	inactive
22	SHC4	1	-0.69	migration z between -2 and 2; enough cells	0.7	5178	inactive
23	FBXL9P	1	-0.13	migration z between -2 and 2; enough cells	0.78	6002	inactive
24	TIMM13	1	-0.5	migration z between -2 and 2; enough cells	0.75	4560	inactive
25	TBC1D19	1	0.12	migration z between -2 and 2; enough cells	0.92	5818	inactive
26	KLHDC7B	1	-0.76	migration z between -2 and 2; enough cells	0.69	5627	inactive
27	ECSCR	1	0.1	migration z between -2 and 2; enough cells	0.91	6116	inactive
28	VCF2	1	-1.99	under 3300 nuclei; migration not judged	0.36	3135	inactive
29	SPESP1	1	0.22	migration z between -2 and 2; enough cells	0.94	4054	inactive
30	ILK	1	-1.15	migration z between -2 and 2; enough cells	0.58	5476	inactive
31	ILK	2	1.06	migration z between -2 and 2; enough cells	1.01	6518	inactive
32	CITED1	1	0.18	migration z between -2 and 2; enough cells	0.84	5192	inactive
33	SHC3	1	-1.34	under 3300 nuclei; migration not judged	0.54	3262	inactive
34	FTSJ3	1	-0.94	migration z between -2 and 2; enough cells	0.64	6204	inactive
35	PRAME	1	-1.14	migration z between -2 and 2; enough cells	0.59	5520	inactive
36	RGS9	1	-0.9	migration z between -2 and 2; enough cells	0.63	4290	inactive
37	TINAGL1	1	0.99	migration z between -2 and 2; enough cells	0.99	7880	inactive
38	TRAPPC2L	1	-1.14	migration z between -2 and 2; enough cells	0.58	5564	inactive
39	TOGARAM2	1	-0.24	migration z between -2 and 2; enough cells	0.82	5499	inactive
40	CEP20	1	0.49	migration z between -2 and 2; enough cells	1.02	6652	inactive
41	MID1IP1	1	1.05	migration z between -2 and 2; enough cells	1.16	4908	inactive
42	CSK	1	-2.42	migration z below -2; enough cells	0.34	5689	active
43	EPCAM	1	0.69	migration z between -2 and 2; enough cells	1.06	5840	inactive
44	HLA-DQA2	1	-0.8	migration z between -2 and 2; enough cells	0.68	4564	inactive
45	RNF13	1	-0.98	migration z between -2 and 2; enough cells	0.62	5332	inactive
46	ENGASE	1	-2.18	under 3300 nuclei; migration not judged	0.38	2590	inactive
47	TRMT44	1	1.4	migration z between -2 and 2; enough cells	1.25	5626	inactive
48	CLEC16A	1	-0.2	migration z between -2 and 2; enough cells	0.83	6107	inactive
49	GAGE2C	1	1.33	migration z between -2 and 2; enough cells	1.23	5298	inactive
50	CBLB	1	-0.23	migration z between -2 and 2; enough cells	0.76	4368	inactive
51	OR7D2	1	1.36	migration z between -2 and 2; enough cells	1.23	5648	inactive
52	DOC2A	1	-1.01	migration z between -2 and 2; enough cells	0.63	6307	inactive
53	SDF4	1	1.17	migration z between -2 and 2; enough cells	1.19	6013	inactive
54	TPBG	1	0.13	migration z between -2 and 2; enough cells	0.92	5586	inactive
55	PIM3	1	-0.21	migration z between -2 and 2; enough cells	0.76	6717	inactive
56	IP6K2	1	0.18	migration z between -2 and 2; enough cells	0.84	5112	inactive
57	LYG1	1	0.8	migration z between -2 and 2; enough cells	1.09	6162	inactive

Laid out differently: entries from further up
target,reagent no.,migration robust z-score,migration class with cell-count check,migration relative to mock,"nuclei per well, duplicate mean",call
CSK,1,-2.42,migration z below -2; enough cells,0.34,5689,active
EPCAM,1,0.69,migration z between -2 and 2; enough cells,1.06,5840,inactive
HLA-DQA2,1,-0.8,migration z between -2 and 2; enough cells,0.68,4564,inactive
RNF13,1,-0.98,migration z between -2 and 2; enough cells,0.62,5332,inactive
